Data published in PubChem BioAssay AID2685 (National Center for Advancing Translational Sciences (NCATS), 2010).
The list shows a part of the results. These are further read-outs of the screen, such as a control signal, another cell line or another target. No call is given for them. The list favours compounds with an active or inconclusive main result. Words in brackets tell the shape of the fitted curve; partial curves, single points and poor fits give uncertain potencies.

Assay: qHTS Assay for Lipid Storage Modulators in Drosophila S3 Cells;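 on cell number change: cells counted by Cell Tracker Red CMTPX staining in the red channel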
Conditions: BODIPY lipid droplet fluorescence, 18-24 h; for cell number change: measured here: cell count max response, cells fed with added oleic acid
In short: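 Drosophila S3 cells loaded with oleic acid (400 uM, as added) and compounds at several concentrations; lipid droplets imaged by 488-nm laser-scanning cytometry, 500–530 nm intensity and object ratio to cell channel. Percent activity normalized to 20 uM Triacsin C.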

[1] = measured here: cell number channel AC50, cells fed with added oleic acid
[2] = measured here: lipid fluorescence (Fed channel) AC50, cells fed with added oleic acid

| Structure (SMILES) | cell number change | AC50 [1] | AC50 [2] |
| --- | --- | --- | --- |
| CC(C)(C)c1ccc(Oc2ccc(NC(=O)c3cccs3)cn2)cc1 | -58.8% | 23.1 µM [falling, partial curve] | 4.11 µM [falling, single point] |
| CC1CCCN(C(=O)CCCC(=O)N2CCCC(C)C2)C1 (configuration not stated) | 6.49% | – | 4.11 µM [falling, full curve, poor fit] |
| CC(C)OC(=O)C1Cc2ccccc2CN1S(=O)(=O)c1cccs1 (configuration not stated) | -6.35% | – | 25.9 µM [falling, single point] |
| O=C(COC(=O)c1ccc(Cl)nc1)NNC(=O)c1ccc(Cl)cc1 | -2.41% | – | – |
| COCCCN(C(=S)NC(=O)C12CC3CC(CC(C3)C1)C2)c1c(N)n(Cc2ccccc2)c(=O)[nH]c1=O | -44% | 0.0461 µM [falling, full curve] | 0.206 µM [falling, full curve] |
| CN1C(=S)SC(N(O)C(=O)NC2CCCCC2)C1(C)C (configuration not stated) | – | 6.51 µM [falling, single point] | – |
| CC1(C)CC2CC(C)(CN2C(=O)CCCN2C(=O)c3ccccc3C2=O)C1 (configuration not stated) | -32.6% | – | 0.206 µM [falling, full curve] |
| COc1cc(OC)cc(C(=O)N/N=C/c2ccc(OC)c(COc3ccc4ccccc4c3)c2)c1 | -3.48% | – | 11.6 µM [falling, partial curve, poor fit] |
| CCc1cc2c(=O)c(-c3cnn(-c4ccccc4)c3)coc2c(CN2CCOCC2)c1O | -26% | – | – |
| Cc1nc2ccc(NC(=O)c3oc4ccc(F)cc4c3C)cc2s1 | -5.02% | – | 0.00517 µM [falling, full curve, poor fit] |
| C=CCN1CN(S(=O)(=O)c2ccc(OC)cc2)c2nc3ccccc3nc21 | 0.19% | – | 20.6 µM [falling, partial curve] |
| COc1cccc(OCC(O)CN2CCOCC2)c1 (configuration not stated) | 8.64% | – | 18.4 µM [rising, single point] |
| CCc1ccc(N(CC(=O)N2CCN(Cc3ccccc3)CC2)S(C)(=O)=O)cc1 | -7.97% | – | 29.1 µM [falling, single point] |
| COc1ccc(N(C(=O)Cn2nnc(-c3ccc(Cl)cc3)n2)C(C(=O)NCC2CCCO2)c2ccc(C)cc2)cc1 (configuration not stated) | 29.9% | 3.26 µM [rising, full curve, poor fit] | 2.31 µM [rising, full curve] |
| COc1ccc(-c2cc(CNS(=O)(=O)c3ccc(F)cc3)on2)cc1 | 5.92% | 0.206 µM [rising, full curve, poor fit] | – |
| CCc1nc2ccc(C(=O)NCCc3ccc(OC)c(OC)c3)cc2nc1CC | -2.75% | – | 5.8 µM [falling, full curve, poor fit] |
| COc1cccc(CNC(=O)[C@@H](C)N2C(=O)N3CCc4c([nH]c5ccc(OC)cc45)C3(C)C2=O)c1 (some centres not stated) | -32% | 2.91 µM [falling, full curve] | 25.9 µM [falling, single point] |
| Cc1nonc1NC(=O)OC1CCCCC1 | 1.93% | – | – |

An excerpt of the results above, as a working copy:

| Structure (SMILES) | cell number change | AC50 [1] | AC50 [2] |
| --- | --- | --- | --- |
| COc1cc(OC)cc(C(=O)N/N=C/c2ccc(OC)c(COc3ccc4ccccc4c3)c2)c1 | -3.48% | – | 11.6 µM [falling, partial curve, poor fit] |
| CCc1cc2c(=O)c(-c3cnn(-c4ccccc4)c3)coc2c(CN2CCOCC2)c1O | -26% | – | – |

Additional compounds

| Structure (SMILES) | cell number change | AC50 [1] | AC50 [2] |
| --- | --- | --- | --- |
| CCCCn1nnnc1NCc1ccc(N(CC)CC)cc1 | 17.6% | – | – |
| O=C1NC(NS(=O)(=O)c2ccc(Cl)cc2)(C(F)(F)F)C(=O)N1CCc1ccccc1 (configuration not stated) | 37.9% | 29.1 µM [rising, single point] | – |
| O=C(OCC(=O)N1CCCC1=O)C1COc2ccccc2O1 (configuration not stated) | – | – | 0.206 µM [falling, full curve, poor fit] |
| C[C@@]12C(=O)Nc3ccc(Cl)cc3C(=O)N1[C@H]1c3ccccc3OC[C@@H]1[C@@H]2c1ccccc1 | – | – | 0.00461 µM [falling, full curve, poor fit] |
| COc1ccc(/C=C2\Oc3cc(OCC(=O)N4CC(O)C[C@H]4C(=O)O)ccc3C2=O)cc1OC (some centres not stated) | 13.6% | – | 29.1 µM [rising, single point] |
| O=C(COc1ccc(Cl)cc1Cl)N/N=C/CCc1ccccc1 | -39.3% | 29.1 µM [falling, single point] | 29.1 µM [falling, single point] |
| CC1=NN(c2ccccc2)C(=O)C1N=Nc1ccccc1 (configuration not stated) | 7.65% | 6.51 µM [rising, partial curve, poor fit] | – |
| Cc1cc(C)n(CC(=O)O)c(=O)c1[N+](=O)[O-] | -51.9% | 29.1 µM [falling, single point] | 29.1 µM [falling, single point] |
| O=C(O)c1c(C(=O)O)c(-c2ccc(F)cc2)n2c1CCC2 | -19.3% | – | 20.6 µM [falling, single point] |
| Cc1ccc(N(CC(=O)Nc2cc(C)ccc2C)S(C)(=O)=O)cc1 | 4.4% | – | 6.51 µM [rising, single point] |
| CC(C(=O)O)N1C(=O)c2ccccc2C1=O (configuration not stated) | 10.8% | – | 0.146 µM [rising, full curve, poor fit] |
| CCn1nc(C)c(CN2CCc3c([nH]c4ccccc34)C2c2ccc(F)c(OC)c2)c1C (configuration not stated) | 15.2% | – | 0.259 µM [rising, full curve, poor fit] |
| CN(Cc1ccccc1)S(=O)(=O)c1ccc2c(c1)OCCO2 | 1.06% | – | 25.9 µM [rising, partial curve, poor fit] |
| N#C[C@@H]1N(Cc2ccccc2)C(=O)[C@H]2CC3C=CC21O3 (some centres not stated) | -8.96% | – | 2.59 µM [rising, full curve, poor fit] |
| COc1cccc(/C=C2\N=C3CCCCCN3C2=O)c1 | 15.6% | – | 6.51 µM [rising, single point] |
| COC(=O)CCCC1=CC2=CC(=O)C(C)(OC(=O)CCc3ccccc3)C(=O)C2=CO1 (configuration not stated) | 2.98% | – | 6.51 µM [rising, single point] |
| CCOC(=O)N1CCC(n2c(SCC(=O)OCc3ccccc3)nc3ccsc3c2=O)CC1 | 1.6% | – | 1.84 µM [rising, partial curve] |
| CCCNC(=O)Nc1ccc2c(c1)N(C)C(=O)c1ccccc1S2 | 23% | 0.731 µM [falling, full curve, poor fit] | 16.4 µM [falling, partial curve] |
